Data: PMC11193767

Protein sequences, listed by entry. Tags and fused reporters are not part of them.
UniProt Q8IWT6: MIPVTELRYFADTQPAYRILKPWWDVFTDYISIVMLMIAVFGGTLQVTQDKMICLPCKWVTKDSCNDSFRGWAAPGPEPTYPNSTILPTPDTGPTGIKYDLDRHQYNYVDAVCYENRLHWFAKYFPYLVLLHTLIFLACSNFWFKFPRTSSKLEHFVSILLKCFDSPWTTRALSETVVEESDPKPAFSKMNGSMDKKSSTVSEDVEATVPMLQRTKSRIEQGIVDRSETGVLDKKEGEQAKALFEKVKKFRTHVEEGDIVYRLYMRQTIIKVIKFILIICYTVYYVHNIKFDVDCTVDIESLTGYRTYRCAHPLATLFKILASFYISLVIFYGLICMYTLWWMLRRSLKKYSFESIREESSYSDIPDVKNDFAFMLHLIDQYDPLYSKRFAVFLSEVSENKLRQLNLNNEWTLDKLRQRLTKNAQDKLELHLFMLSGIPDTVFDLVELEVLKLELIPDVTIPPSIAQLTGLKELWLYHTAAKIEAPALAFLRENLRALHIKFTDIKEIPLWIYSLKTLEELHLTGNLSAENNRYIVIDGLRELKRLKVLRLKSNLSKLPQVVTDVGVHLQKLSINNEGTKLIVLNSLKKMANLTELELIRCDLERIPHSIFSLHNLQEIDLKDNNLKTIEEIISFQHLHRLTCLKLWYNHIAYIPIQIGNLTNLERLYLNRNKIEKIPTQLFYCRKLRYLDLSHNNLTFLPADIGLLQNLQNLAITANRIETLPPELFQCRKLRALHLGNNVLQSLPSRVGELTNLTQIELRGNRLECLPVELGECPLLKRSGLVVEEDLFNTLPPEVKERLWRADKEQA

B1: Fibronectin type-III domain-containing protein 3A (protein, UniProt Q9Y2H6-1 1-1198)
chain: MAEHPPLLDTTQILSSDISLLSAPIVSADGTQQVILVQVNPGEAFTIRREDGQFQCITGPAQVPMMSPNGSVPPIYVPPGYAPQVIEDNGVRRVVVVPQAPEFHPGSHTVLHRSPHPPLPGFIPVPTMMPPPPRHMYSPVTGAGDMTTQYMPQYQSSQVYGDVDAHSTHGRSNFRDERSSKTYERLQKKLKDRQGTQKDKMSSPPSSPQKCPSPINEHNGLIKGQIAGGINTGSAKIKSGKGKGGTQVDTEIEEKDEETKAFEALLSNIVKPVASDIQARTVVLTWSPPSSLINGETDESSVPELYGYEVLISSTGKDGKYKSVYVGEETNITLNDLKPAMDYHAKVQAEYNSIKGTPSEAEIFTTLSCEPDIPNPPRIANRTKNSLTLQWKAPSDNGSKIQNFVLEWDEGKGNGEFCQCYMGSQKQFKITKLSPAMGCKFRLSARNDYGTSGFSEEVLYYTSGCAPSMPASPVLTKAGITWLSLQWSKPSGTPSDEGISYILEMEEETSGYGFKPKYDGEDLAYTVKNLRRSTKYKFKVIAYNSEGKSNPSEVVEFTTCPDKPGIPVKPSVKGKIHSHSFKITWDPPKDNGGATINKYVVEMAEGSNGNKWEMIYSGATREHLCDRLNPGCFYRLRVYCISDGGQSAVSESLLVQTPAVPPGPCLPPRLQGRPKAKEIQLRWGPPLVDGGSPISCYSVEMSPIEKDEPREVYQGSEVECTVSSLLPGKTYSFRLRAANKMGFGPFSEKCDITTAPGPPDQCKPPQVTCRSATCAQVNWEVPLSNGTDVTEYRLEWGGVEGSMQICYCGPGLSYEIKGLSPATTYYCRVQALSVVGAGPFSEVVACVTPPSVPGIVTCLQEISDDEIENPHYSPSTCLAISWEKPCDHGSEILAYSIDFGDKQSLTVGKVTSYIINNLQPDTTYRIRIQALNSLGAGPFSHMIKLKTKPLPPDPPRLECVAFSHQNLKLKWGEGTPKTLSTDSIQYHLQMEDKNGRFVSLYRGPCHTYKVQRLNESTSYKFCIQACNEAGEGPLSQEYIFTTPKSVPAALKAPKIEKVNDHICEITWECLQPMKGDPVIYSLQVMLGKDSEFKQIYKGPDSSFRYSSLQLNCEYRFRVCAIRQCQDSLGHQDLVGPYSTTVLFISQRTEPPASTNRDTVESTRTRRALSDEQCAAVILVLFAFFSILIAFIIQYFVIK
B2: GRB2-associated-binding protein 1 (protein, UniProt Q13480-2 1-724)
chain: MSGGEVVCSGWLRKSPPEKKLKRYAWKRRWFVLRSGRLTGDPDVLEYYKNDHAKKPIRIIDLNLCQQVDAGLTFNKKEFENSYIFDINTIDRIFYLVADSEEEMNKWVRCICDICGFNPTEEDPVKPPGSSLQAPADLPLAINTAPPSTQADSSSATLPPPYQLINVPPHLETLGIQEDPQDYLLLINCQSKKPEPTRTHADSAKSTSSETDCNDNVPSHKNPASSQSKHGMNGFFQQQMIYDSPPSRAPSASVDSSLYNLPRSYSHDVLPKVSPSSTEADGELYVFNTPSGTSSVETQMRHVSISYDIPPTPGNTYQIPRTFPEGTLGQTSKLDTIPDIPPPRPPKPHPAHDRSPVETCSIPRTASDTDSSYCIPTAGMSPSRSNTISTVDLNKLRKDASSQDCYDIPRAFPSDRSSSLEGFHNHFKVKNVLTVGSVSSEELDENYVPMNPNSPPRQHSSSFTEPIQEANYVPMTPGTFDFSSFGMQVPPPAHMGFRSSPKTPPRRPVPVADCEPPPVDRNLKPDRKGQSPKILRLKPHGLERTDSQTIGDFATRRKVKPAPLEIKPLPEWEELQAPVRSPITRSFARDSSRFPMSPRPDSVHSTTSSSDSHDSEENYVPMNPNLSSEDPNLFGSNSLDGGSSPMIKPKGDKQVEYLDLDLDSGKSTPPRKQKSSGSGSSVADERVDYVVVDQQKTLALKSTREAWTDGRQSTESETPAKSVK
B3: GTPase-activating protein and VPS9 domain-containing protein 1 (protein, UniProt Q14C86-1 1-1478)
chain: MVKLDIHTLAHHLKQERLYVNSEKQLIQRLNADVLKTAEKLYRTAWIAKQQRINLDRLIITSAEASPAECCQHAKILEDTQFVDGYKQLGFQETAYGEFLSRLRENPRLIASSLVAGEKLNQENTQSVIYTVFTSLYGNCIMQEDESYLLQVLRYLIEFELKESDNPRRLLRRGTCAFSILFKLFSEGLFSAKLFLTATLHEPIMQLLVEDEDHLETDPNKLIERFSPSQQEKLFGEKGSDRFRQKVQEMVESNEAKLVALVNKFIGYLKQNTYCFPHSLRWIVSQMYKTLSCVDRLEVGEVRAMCTDLLLACFICPAVVNPEQYGIISDAPINEVARFNLMQVGRLLQQLAMTGSEEGDPRTKSSLGKFDKSCVAAFLDVVIGGRAVETPPLSSVNLLEGLSRTVVYITYSQLITLVNFMKSVMSGDQLREDRMALDNLLANLPPAKPGKSSSLEMTPYNTPQLSPATTPANKKNRLPIATRSRSRTNMLMDLHMDHEGSSQETIQEVQPEEVLVISLGTGPQLTPGMMSENEVLNMQLSDGGQGDVPVDENKLHGKPDKTLRFSLCSDNLEGISEGPSNRSNSVSSLDLEGESVSELGAGPSGSNGVEALQLLEHEQATTQDNLDDKLRKFEIRDMMGLTDDRDISETVSETWSTDVLGSDFDPNIDEDRLQEIAGAAAENMLGSLLCLPGSGSVLLDPCTGSTISETTSEAWSVEVLPSDSEAPDLKQEERLQELESCSGLGSTSDDTDVREVSSRPSTPGLSVVSGISATSEDIPNKIEDLRSECSSDFGGKDSVTSPDMDEITHGAHQLTSPPSQSESLLAMFDPLSSHEGASAVVRPKVHYARPSHPPPDPPILEGAVGGNEARLPNFGSHVLTPAEMEAFKQRHSYPERLVRSRSSDIVSSVRRPMSDPSWNRRPGNEERELPPAAAIGATSLVAAPHSSSSSPSKDSSRGETEERKDSDDEKSDRNRPWWRKRFVSAMPKAPIPFRKKEKQEKDKDDLGPDRFSTLTDDPSPRLSAQAQVAEDILDKYRNAIKRTSPSDGAMANYESTGDNHDRDLSSKLLYHSDKEVMGDGESAHDSPRDEALQNISADDLPDSASQAAHPQDSAFSYRDAKKKLRLALCSADSVAFPVLTHSTRNGLPDHTDPEDNEIVCFLKVQIAEAINLQDKNLMAQLQETMRCVCRFDNRTCRKLLASIAEDYRKRAPYIAYLTRCRQGLQTTQAHLERLLQRVLRDKEVANRYFTTVCVRLLLESKEKKIREFIQDFQKLTAADDKTAQVEDFLQFLYGAMAQDVIWQNASEEQLQDAQLAIERSVMNRIFKLAFYPNQDGDILRDQVLHEHIQRLSKVVTANHRALQIPEVYLREAPWPSAQSEIRTISAYKTPRDKVQCILRMCSTIMNLLSLANEDSVPGADDFVPVLVFVLIKANPPCLLSTVQYISSFYASCLSGEESYWWMQFTAAVEFIKTIDDRK
B4: G protein-regulated inducer of neurite outgrowth 1 (protein, UniProt Q7Z2K8-1 1-1008)
chain: MDTAEDPAWLQLLQKDSSPPGPRPTAFFCPQDGSLGAGSSAMRDYCPSQQKASPAPPRHTPDQSPGMESRHRSPSGAGEGASCSDGPRGSLACPSPTCFSPQESPSKETLEAHGASISGTPEATTSGKPEPVSSVKTEPKSSDDRNPMFLEKMDFKSSKQADSTSIGKEDPGSSRKADPMFTGKAEPEILGKGDPVAPGRMDPMTVRKEDLGSLGKVDPLCSSKTYTVSPRKEDPGSLRKVDPVSSDKVDPVFPRKEEPRYSGKEHPVSSEKVAPTSAEKVDLVLSGKRDPGPSGKADPMPLESMDSASTGKTEPGLLGKLIPGSSGKNGPVSSGTGAPGSLGRLDPTCLGMADPASVGNVETVPATKEDSRFLGKMDPASSGEGRPVSGHTDTTASAKTDLTSLKNVDPMSSGKVDPVSLGKMDPMCSGKPELLSPGQAERVSVGKAGTVSPGKEDPVSSRREDPISAGSRKTSSEKVNPESSGKTNPVSSGPGDPRSLGTAGPPSAVKAEPATGGKGDPLSSEKAGLVASGKAAPTASGKAEPLAVGKEDPVSKGKADAGPSGQGDSVSIGKVVSTPGKTVPVPSGKVDPVSLGKAEAIPEGKVGSLPLEKGSPVTTTKADPRASGKAQPQSGGKAETKLPGQEGAAAPGEAGAVCLKKETPQASEKVDPGSCRKAEPLASGKGEPVSLGKADSAPSRKTESPSLGKVVPLSLEKTKPSSSSRQLDRKALGSARSPEGARGSEGRVEPKAEPVSSTEASSLGQKDLEAAGAERSPCPEAAAPPPGPRTRDNFTKAPSWEASAPPPPREDAGTQAGAQACVSVAVSPMSPQDGAGGSAFSFQAAPRAPSPPSRRDAGLQVSLGAAETRSVATGPMTPQAAAPPAFPEVRVRPGSALAAAVAPPEPAEPVRDVSWDEKGMTWEVYGAAMEVEVLGMAIQKHLERQIEEHGRQGAPAPPPAARAGPGRSGSVRTAPPDGAAKRPPGLFRALLQSVRRPRCCSRAGPTAE
B5: Interferon-induced protein with tetratricopeptide repeats 5 (protein, UniProt Q13325-1 1-482)
chain: MSEIRKDTLKAILLELECHFTWNLLKEDIDLFEVEDTIGQQLEFLTTKSRLALYNLLAYVKHLKGQNKDALECLEQAEEIIQQEHSDKEEVRSLVTWGNYAWVYYHMDQLEEAQKYTGKIGNVCKKLSSPSNYKLECPETDCEKGWALLKFGGKYYQKAKAAFEKALEVEPDNPEFNIGYAITVYRLDDSDREGSVKSFSLGPLRKAVTLNPDNSYIKVFLALKLQDVHAEAEGEKYIEEILDQISSQPYVLRYAAKFYRRKNSWNKALELLKKALEVTPTSSFLHHQMGLCYRAQMIQIKKATHNRPKGKDKLKVDELISSAIFHFKAAMERDSMFAFAYTDLANMYAEGGQYSNAEDIFRKALRLENITDDHKHQIHYHYGRFQEFHRKSENTAIHHYLEALKVKDRSPLRTKLTSALKKLSTKRLCHNALDVQSLSALGFVYKLEGEKRQAAEYYEKAQKIDPENAEFLTALCELRLSI
B6: Insulin receptor substrate 2 (protein, UniProt Q9Y4H2 1-1338)
chain: MASPPRHGPPGPASGDGPNLNNNNNNNNHSVRKCGYLRKQKHGHKRFFVLRGPGAGGDEATAGGGSAPQPPRLEYYESEKKWRSKAGAPKRVIALDCCLNINKRADAKHKYLIALYTKDEYFAVAAENEQEQEGWYRALTDLVSEGRAAAGDAPPAAAPAASCSASLPGALGGSAGAAGAEDSYGLVAPATAAYREVWQVNLKPKGLGQSKNLTGVYRLCLSARTIGFVKLNCEQPSVTLQLMNIRRCGHSDSFFFIEVGRSAVTGPGELWMQADDSVVAQNIHETILEAMKALKELFEFRPRSKSQSSGSSATHPISVPGARRHHHLVNLPPSQTGLVRRSRTDSLAATPPAAKCSSCRVRTASEGDGGAAAGAAAAGARPVSVAGSPLSPGPVRAPLSRSHTLSGGCGGRGSKVALLPAGGALQHSRSMSMPVAHSPPAATSPGSLSSSSGHGSGSYPPPPGPHPPLPHPLHHGPGQRPSSGSASASGSPSDPGFMSLDEYGSSPGDLRAFCSHRSNTPESIAETPPARDGGGGGEFYGYMTMDRPLSHCGRSYRRVSGDAAQDLDRGLRKRTYSLTTPARQRPVPQPSSASLDEYTLMRATFSGSAGRLCPSCPASSPKVAYHPYPEDYGDIEIGSHRSSSSNLGADDGYMPMTPGAALAGSGSGSCRSDDYMPMSPASVSAPKQILQPRAAAAAAAAVPSAGPAGPAPTSAAGRTFPASGGGYKASSPAESSPEDSGYMRMWCGSKLSMEHADGKLLPNGDYLNVSPSDAVTTGTPPDFFSAALHPGGEPLRGVPGCCYSSLPRSYKAPYTCGGDSDQYVLMSSPVGRILEEERLEPQATPGPSQAASAFGAGPTQPPHPVVPSPVRPSGGRPEGFLGQRGRAVRPTRLSLEGLPSLPSMHEYPLPPEPKSPGEYINIDFGEPGARLSPPAPPLLASAASSSSLLSASSPASSLGSGTPGTSSDSRQRSPLSDYMNLDFSSPKSPKPGAPSGHPVGSLDGLLSPEASSPYPPLPPRPSASPSSSLQPPPPPPAPGELYRLPPASAVATAQGPGAASSLSSDTGDNGDYTEMAFGVAATPPQPIAAPPKPEAARVASPTSGVKRLSLMEQVSGVEAFLQASQPPDPHRGAKVIRADPQGGRRRHSSETFSSTTTVTPVSPSFAHNPKRHNSASVENVSLRKSSEGGVGVGPGGGDEPPTSPRQLQPAPPLAPQGRPWTPGQPGGLVGCPGSGGSPMRRETSAGFQNGLNYIAIDVREEPGLPPQPQPPPPPLPQPGDKSSWGRTRSLGGLISAVGVGSTGGGCGGPGPGALPPANTYASIDFLSHHLKEATIVKE

These binders were tested against LRRC8A-BirA*-HA fusion protein (human) (UniProt Q8IWT6) (assay: proximity labelling; BioID: HEK293 cells stably expressing LRRC8A-BirA*-HA (two clones), 50 uM biotin 24 h, RIPA lysis, streptavidin bead pull-down of biotinylated proteins, TMT labelling and LC-MS/MS; hits: FDR <= 0.05 and fold change >= 2 against the no-biotin control).

Binder	binding
B1	binds
B2	binds
B3	binds
B4	binds
B5	binds
B6	binds

These are yes or no findings as the source states them, for the method shown. In cells and extracts the contact can be indirect. A yes stands for co-enrichment or nearness to the bait. Other partners may have been found.
